Experimental data from article PMC4527783 (PLoS ONE, 2015).
No constants are given. Whether binding was seen depends on the method and setting. Binding seen in cells or lysates may run through a third protein. Some entries that bind do so weakly or less than the wild type.

The chains behind the UniProt entries cited, without tags or fusion partners. Residues count along the entry.
UniProt P41146: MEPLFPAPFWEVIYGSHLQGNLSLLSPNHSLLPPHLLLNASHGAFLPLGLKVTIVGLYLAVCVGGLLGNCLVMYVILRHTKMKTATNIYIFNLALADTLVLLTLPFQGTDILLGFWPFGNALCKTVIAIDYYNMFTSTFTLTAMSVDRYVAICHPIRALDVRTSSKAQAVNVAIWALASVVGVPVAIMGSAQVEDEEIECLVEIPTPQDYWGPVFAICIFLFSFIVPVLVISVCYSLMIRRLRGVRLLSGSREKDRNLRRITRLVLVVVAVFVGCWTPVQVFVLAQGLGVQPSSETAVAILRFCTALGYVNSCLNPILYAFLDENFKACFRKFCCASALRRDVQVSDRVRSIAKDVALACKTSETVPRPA
UniProt P32121, residues 2-409: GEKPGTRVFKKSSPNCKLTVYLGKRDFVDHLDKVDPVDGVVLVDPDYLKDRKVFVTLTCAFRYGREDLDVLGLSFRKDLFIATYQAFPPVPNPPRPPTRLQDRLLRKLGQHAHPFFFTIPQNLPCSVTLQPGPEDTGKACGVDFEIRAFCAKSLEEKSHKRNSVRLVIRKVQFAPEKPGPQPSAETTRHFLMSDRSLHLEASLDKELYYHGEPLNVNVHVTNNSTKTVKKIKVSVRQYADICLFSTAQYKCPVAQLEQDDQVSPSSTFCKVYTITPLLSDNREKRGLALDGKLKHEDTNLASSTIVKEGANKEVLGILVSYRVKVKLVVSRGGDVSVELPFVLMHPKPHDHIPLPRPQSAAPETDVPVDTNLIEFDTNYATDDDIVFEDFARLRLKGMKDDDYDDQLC

Molecular target: Human NOP Rluc-tagged fusion protein (N/OFQ peptide receptor fused to Renilla luciferase) (human) (UniProt P41146)
Assay: FRET or BRET; BRET between NOP-RLuc and β-arrestin 2-RGFP in whole co-expressing HEK293 cells (100,000 cells/well), DPBS with 0.5 mM MgCl2 and 0.9 mM CaCl2, coelenterazine 5 μM, agonist added 5 min before reading, room temperature; also after PTX 10 ng 20 h (negligible effect)

## Human β-arrestin 2 tethered to the C terminus of RGFP (from UniProt P32121 2-409)
  binding: binds
